Drawing on paper PMC4636271, this text covers binding for five molecules.

Chains of the proteins cited; added tags and fusions are not shown.
UniProt Q15046: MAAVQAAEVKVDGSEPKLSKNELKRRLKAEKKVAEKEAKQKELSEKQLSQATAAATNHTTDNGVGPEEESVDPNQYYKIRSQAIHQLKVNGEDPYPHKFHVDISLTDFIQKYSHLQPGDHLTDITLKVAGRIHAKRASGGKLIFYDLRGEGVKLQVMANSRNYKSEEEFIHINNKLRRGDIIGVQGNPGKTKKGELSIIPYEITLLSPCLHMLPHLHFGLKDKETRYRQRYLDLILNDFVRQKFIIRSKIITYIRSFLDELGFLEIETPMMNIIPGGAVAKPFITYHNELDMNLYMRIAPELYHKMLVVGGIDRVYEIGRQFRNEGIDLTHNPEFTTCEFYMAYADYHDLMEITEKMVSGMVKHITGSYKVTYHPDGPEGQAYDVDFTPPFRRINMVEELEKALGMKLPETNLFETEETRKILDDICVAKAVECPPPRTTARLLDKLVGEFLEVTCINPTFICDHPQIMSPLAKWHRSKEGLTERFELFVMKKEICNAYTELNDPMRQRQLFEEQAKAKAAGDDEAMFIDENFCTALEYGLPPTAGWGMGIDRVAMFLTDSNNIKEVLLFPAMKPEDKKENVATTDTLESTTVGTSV

Results are given in words; binding and its absence hold for the method and conditions named. Binding seen in cells or lysates may run through a third protein. These calls come from enrichment with a bait or labelling near it, and not all partners need be listed. For some assays here: A no says only that the protein was not detected with the bait.

Experiment [1] deals with lysyl-tRNA synthetase (KARS) tagged with S/FLAG/SBP, Q15046. The experiment can be described thus: affinity purification with mass spectrometry; S/FLAG/SBP-KARS in lysate (2 mg) of transfected HEK 293T cells held on streptavidin agarose, NETN buffer (20 mM Tris-HCl pH 7.5, 1 mM EDTA, 150 mM NaCl, 0.1% NP-40), 2 h, 4°C, three washes, eluted with 0.82 mM biotin; eluate fractionated by SEC (Superdex 200, PBS) and each fraction read by MRM-MS. The following applies: remark: other sources report otherwise.

The target of experiment [2] is lysyl-tRNA synthetase (KARS) tagged with S/FLAG/SBP (UniProt Q15046). Described as above.

B1: RARS, P54136 1-660 (enzyme)
chain: MDVLVSECSARLLQQEEEIKSLTAEIDRLKNCGCLGASPNLEQLQEENLKLKYRLNILRKSLQAERNKPTKNMINIISRLQEVFGHAIKAAYPDLENPPLLVTPSQQAKFGDYQCNSAMGISQMLKTKEQKVNPREIAENITKHLPDNECIEKVEIAGPGFINVHLRKDFVSEQLTSLLVNGVQLPALGENKKVIVDFSSPNIAKEMHVGHLRSTIIGESISRLFEFAGYDVLRLNHVGDWGTQFGMLIAHLQDKFPDYLTVSPPIGDLQVFYKESKKRFDTEEEFKKRAYQCVVLLQGKNPDITKAWKLICDVSRQELNKIYDALDVSLIERGESFYQDRMNDIVKEFEDRGFVQVDDGRKIVFVPGCSIPLTIVKSDGGYTYDTSDLAAIKQRLFEEKADMIIYVVDNGQSVHFQTIFAAAQMIGWYDPKVTRVFHAGFGVVLGEDKKKFKTRSGETVRLMDLLGEGLKRSMDKLKEKERDKVLTAEELNAAQTSVAYGCIKYADLSHNRLNDYIFSFDKMLDDRGNTAAYLLYAFTRIRSIARLANIDEEMLQKAARETKILLDHEKEWKLGRCILRFPEILQKILDDLFLHTLCDYIYELATAFTEFYDSCYCVEKDRQTGKILKVNMWRMLLCEAVAAVMAKGFDILGIKPVQRM
In the case of B1, in experiment [1], the binding entry is “binds”.

B2: NARS (enzyme, UniProt O43776 1-548)
chain: MVLAELYVSDREGSDATGDGTKEKPFKTGLKALMTVGKEPFPTIYVDSQKENERWNVISKSQLKNIKKMWHREQMKSESREKKEAEDSLRREKNLEEAKKITIKNDPSLPEPKCVKIGALEGYRGQRVKVFGWVHRLRRQGKNLMFLVLRDGTGYLQCVLADELCQCYNGVLLSTESSVAVYGMLNLTPKGKQAPGGHELSCDFWELIGLAPAGGADNLINEESDVDVQLNNRHMMIRGENMSKILKARSMVTRCFRDHFFDRGYYEVTPPTLVQTQVEGGATLFKLDYFGEEAFLTQSSQLYLETCLPALGDVFCIAQSYRAEQSRTRRHLAEYTHVEAECPFLTFDDLLNRLEDLVCDVVDRILKSPAGSIVHELNPNFQPPKRPFKRMNYSDAIVWLKEHDVKKEDGTFYEFGEDIPEAPERLMTDTINEPILLCRFPVEIKSFYMQRCPEDSRLTESVDVLMPNVGEIVGGSMRIFDSEEILAGYKREGIDPTPYYWYTDQRKYGTCPHGGYGLGLERFLTWILNRYHIRDVCLYPRFVQRCTP
Turning to B2, the binding entry in experiment [2] is reported as “no binding”.

B3: threonyl-tRNA synthetase like protein 2 (TARSL2), A2RTX5 1-802 (protein)
chain: MAAEALAAEAVASRLERQEEDIRWLWSEVERLRDEQLNAPYSCQAEGPCLTREVAQLRAENCDLRHRLCSLRLCLAEERSRQATLESAELEAAQEAGAQPPPSQSQDKDMKKKKMKESEADSEVKHQPIFIKERLKLFEILKKDHQLLLAIYGKKGDTSNIITVRVADGQTVQGEVWKTTPYQVAAEISQELAESTVIAKVNGELWDLDRPLEGDSSLELLTFDNEEAQAVYWHSSAHILGEAMELYYGGHLCYGPPIENGFYYDMFIEDRAVSSTELSALENICKAIIKEKQPFERLEVSKEILLEMFKYNKFKCRILNEKVNTATTTVYRCGPLIDLCKGPHVRHTGKIKTIKIFKNSSTYWEGNPEMETLQRIYGISFPDNKMMRDWEKFQEEAKNRDHRKIGKEQELFFFHDLSPGSCFFLPRGAFIYNTLTDFIREEYHKRDFTEVLSPNMYNSKLWEASGHWQHYSENMFTFEIEKDTFALKPMNCPGHCLMFAHRPRSWREMPIRFADFGVLHRNELSGTLSGLTRVRRFQQDDAHIFCTVEQIEEEIKGCLQFLQSVYSTFGFSFQLNLSTRPENFLGEIEMWNEAEKQLQNSLMDFGEPWKMNPGDGAFYGPKIDIKIKDAIGRYHQCATIQLDFQLPIRFNLTYVSKDGDDKKRPVIIHRAILGSVERMIAILSENYGGKWPFWLSPRQVMVIPVGPTCEKYALQVSSEFFEEGFMADVDLDHSCTLNKKIRNAQLAQYNFILVVGEKEKIDNAVNVRTRDNKIHGEILVTSAIDKLKNLRKTRTLNAEEAF
For B3, the binding entry in experiment [1] is listed as “binds”.

B4: DARS, P14868 1-501 (enzyme)
chain: MPSASASRKSQEKPREIMDAAEDYAKERYGISSMIQSQEKPDRVLVRVRDLTIQKADEVVWVRARVHTSRAKGKQCFLVLRQQQFNVQALVAVGDHASKQMVKFAANINKESIVDVEGVVRKVNQKIGSCTQQDVELHVQKIYVISLAEPRLPLQLDDAVRPEAEGEEEGRATVNQDTRLDNRVIDLRTSTSQAVFRLQSGICHLFRETLINKGFVEIQTPKIISAASEGGANVFTVSYFKNNAYLAQSPQLYKQMCICADFEKVFSIGPVFRAEDSNTHRHLTEFVGLDIEMAFNYHYHEVMEEIADTMVQIFKGLQERFQTEIQTVNKQFPCEPFKFLEPTLRLEYCEALAMLREAGVEMGDEDDLSTPNEKLLGHLVKEKYDTDFYILDKYPLAVRPFYTMPDPRNPKQSNSYDMFMRGEEILSGAQRIHDPQLLTERALHHGIDLEKIKAYIDSFRFGAPPHAGGGIGLERVTMLFLGLHNVRQTSMFPRDPKRLTP
Take B4: the binding result in experiment [1] is recorded as “binds”.

B5: HARS (enzyme, UniProt P12081 1-509)
chain: MAERAALEELVKLQGERVRGLKQQKASAELIEEEVAKLLKLKAQLGPDESKQKFVLKTPKGTRDYSPRQMAVREKVFDVIIRCFKRHGAEVIDTPVFELKETLMGKYGEDSKLIYDLKDQGGELLSLRYDLTVPFARYLAMNKLTNIKRYHIAKVYRRDNPAMTRGRYREFYQCDFDIAGNFDPMIPDAECLKIMCEILSSLQIGDFLVKVNDRRILDGMFAICGVSDSKFRTICSSVDKLDKVSWEEVKNEMVGEKGLAPEVADRIGDYVQQHGGVSLVEQLLQDPKLSQNKQALEGLGDLKLLFEYLTLFGIDDKISFDLSLARGLDYYTGVIYEAVLLQTPAQAGEEPLGVGSVAAGGRYDGLVGMFDPKGRKVPCVGLSIGVERIFSIVEQRLEALEEKIRTTETQVLVASAQKKLLEERLKLVSELWDAGIKAELLYKKNPKLLNQLQYCEEAGIPLVAIIGEQELKDGVIKLRSVTSREEVDVRREDLVEEIKRRTGQPLCIC
As for B5, in experiment [2], the binding result is given as “no binding”.
